PubChem BioAssay AID1259424 | University of Nebraska Medical Center | 2018

Assay: 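Seek colon cancer survival genes behaving like KSR1, using a six-gene signature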 (primary screen)
Cells: human HCT116 colon cancer cells
Reagent: siRNA pool against human genes, 50 nM
Detection: 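Six signature mRNAs by branched-DNA multiplex assay, scaled to two housekeeping genes and non-targeting median, log2; matched to mean KSR1 knockdown profile by Pearson correlation and euclidean distance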
Scale: mean correlation with KSR1 profile: higher = expression change more like KSR1 knockdown
This is an unselected part of about 14,000 reagents tested. 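Higher correlation or smaller distance means closer resemblance to KSR1 loss; control wells, including KSR1 knockdowns, recur on many plates.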 Not all columns of the deposit are shown. The record does not give: the time to read-out.

SLC25A11 [SID363994644] gave mean correlation with KSR1 profile -0.202. For NDUFS7 [SID364002812], the entry reads mean correlation with KSR1 profile 0.0997. With knock-down of SAMM50 [SID363999455] the results were mean correlation with KSR1 profile -0.116. Against EFR3A [SID364005089], the values are mean correlation with KSR1 profile 0. For BHLHE22 [SID364004717] the deposit lists mean correlation with KSR1 profile -0.375. With knock-down of PI4K2B [SID364000977], the screen gave mean correlation with KSR1 profile 0.0108.

With knock-down of CNNM2 [SID364000417], the screen gave mean correlation with KSR1 profile -0.029. For PUM3 [SID363999165], the entry reads mean correlation with KSR1 profile 0.0636. For PGBD3 [SID364004803], the values are mean correlation with KSR1 profile -0.586. CTSZ [SID363992616] showed mean correlation with KSR1 profile -0.0726. Against PPCDC [SID364002203], the values are mean correlation with KSR1 profile -0.557. Depletion of ST3GAL2 [SID363997680] came out at: mean correlation with KSR1 profile -0.627.
